PubChem BioAssay AID504834 (National Center for Advancing Translational Sciences (NCATS), 2011)
Screen size: about 320,000 compounds; about 22,000 (6.9%) were called active. The shares of active, inactive and inconclusive entries below differ from those in the screen. Calls follow the shape of the dose curve; as a rule, active = well fitted inhibition curve with a large enough effect; inconclusive = small, poorly fitted or top-dose-only effect, or another doubt; inactive = no such curve, though single readings can be large or run the other way. A potency beside an inconclusive call is a rough fit, not a confirmed value.

Assay: Primary qHTS for delayed death inhibitors of the malarial parasite plastid, 96 hour incubation
Conditions: P. falciparum luciferase reporter growth; series mostly up to 28.7 µM; activity change, negative = inhibition: at the top concentration
How it was run: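 96 h incubation, 37 C, 5% CO2, of luciferase-reporter P. falciparum-infected RBCs (2% hematocrit, 0.05% parasitemia final) with test compounds; endpoint luminescence.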
% is scaled to controls: 0 for no effect and ±100 for the full control effect; potency is read from the fitted curve at half-maximal effect.

| Compound | Potency | activity change, negative = inhibition |
| --- | --- | --- |
| O=C(COC(=O)c1ccc(O)cc1)NCc1ccc2c(c1)OCO2 | inconclusive: 16.5 µM [inhibitor, partial curve, poor fit] |  |
| Nc1ccc(Oc2ccc3c(c2)C(=O)NC3=O)cc1 | inconclusive: 8.28 µM [inhibitor, partial curve, poor fit] |  |
| Cc1c(C#N)c2ccccc2n1CCOc1ccccc1F | active: 2.94 µM |  |
| Cc1cc(O)ccc1N/C=C/c1onc(C)c1[N+](=O)[O-] |  | inactive: 207% |
| CCOC(=O)c1nn(-c2cccc(OC)c2)c(-c2ccccc2)c1C(=O)c1ccccc1 | inconclusive: 11.7 µM [inhibitor, single point] |  |
| CCCN1CCN(CCCNC(=O)C(CC)n2nc(C)n3c(cc4occc43)c2=O)CC1 (stereo unspecified) | inconclusive: 0.465 µM [inhibitor, single point] |  |
| CCn1cc(S(=O)(=O)N2CCCC2)cn1 |  | inactive: -2.33% |
| CC(=O)n1cc(/C=N/NC(=O)c2ccccc2Cl)c2ccccc21 | inconclusive: 18.5 µM [inhibitor, single point] |  |
| Cc1cc[n+](CC(=O)Nc2cc(C(F)(F)F)ccc2Cl)cc1 | inconclusive: 11.7 µM [inhibitor, single point] |  |
| COc1ccc(NC(=O)CN(C)C2CCCCC2)c([N+](=O)[O-])c1 |  | inactive: 47.4% |
| Cc1cc(S(=O)(=O)N2CCCC2)ccc1OCC(=O)N1CCCCC1 | inconclusive: 18.5 µM [inhibitor, single point] |  |
| Cc1nn(CCCC(=O)NCCc2ccccc2)c(=O)c2nn(-c3ccccc3)c(C)c12 | inconclusive: 18.5 µM [inhibitor, single point] |  |
| O=C(c1ccc(S(=O)(=O)Nc2cccc(C(F)(F)F)c2)cc1)N1CCN(c2ccccc2O)CC1 | inconclusive: 18.5 µM [inhibitor, single point] |  |
| CC(C)(C)c1ccc(C(=O)N2CCN(Cc3ccccc3)CC2)cc1 |  | inactive: -9.62% |
| CC(=O)CCC1CC(c2ccc(Cl)cc2)=NO1 (stereo unspecified) |  | inactive: 127% |
| COc1ccccc1N1CCN(/N=C\c2cccnc2)CC1 | inconclusive: 10.4 µM [inhibitor, single point] |  |
| COc1cc(/C=N/OCC(=O)NC2CCCCC2)ccc1OCc1ccccc1 | inconclusive: 0.329 µM [inhibitor, full curve, poor fit] |  |
| O=C(CCc1ccccc1)N1CCN(c2ccccn2)CC1 | inconclusive: 2.62 µM [inhibitor, single point] |  |
| O=C(c1cc(C2CC2)nn1-c1ccccc1)N1CCN(S(=O)(=O)c2cccc(F)c2)CC1 | inconclusive: 9.28 µM [inhibitor, single point] |  |
| Cc1nn(CCS(=O)(=O)c2ccc(Cl)cc2)c(C)c1Br |  | inactive: 24% |
| COc1ccccc1C(=O)NCCC(=O)NNC(=O)c1ccccc1O |  | inactive: 6.7% |
| Cc1ccc(-n2nnnc2SCC(=O)NC2CCCc3ccccc32)c(C)c1 (stereo unspecified) | inconclusive: 18.5 µM [inhibitor, single point] |  |
| CCN(CC)S(=O)(=O)c1cc(C(=O)O)ccc1OC |  | inactive: 41.5% |

| Compound | Potency | activity change, negative = inhibition |
| --- | --- | --- |
| O=C(CCCN1C(=O)c2cccc3cccc(c23)C1=O)N1CCN(c2ccccc2O)CC1 | inconclusive: 8.28 µM [inhibitor, partial curve, poor fit] |  |
| CC1(C)Nc2ccccc2N(Cc2ccc([N+](=O)[O-])cc2)C1=O | inconclusive: 13.1 µM [inhibitor, single point] |  |
| Cc1nn(C(C)C(=O)NC2CCCCC2)c(=O)c2nn(-c3ccccc3)c(C)c12 (stereo unspecified) | active: 11.7 µM |  |
| CN1CCC(N(C)C(=O)COc2ccccc2Cl)CC1 | inconclusive: 18.5 µM [inhibitor, single point] |  |
| O=C(NC1CC1)C1=C[C@H](c2ccc(C(F)(F)F)cc2)C[C@H](OCc2ccc(CO)cc2)O1 | inconclusive: 18.5 µM [inhibitor, single point] |  |
| CC1Sc2ccc(S(=O)(=O)CCC(=O)Nc3cc(F)ccc3F)cc2NC1=O (stereo unspecified) | inconclusive: 6.57 µM [inhibitor, partial curve, poor fit] |  |
| OCc1ccccc1OCCCOc1cccc2cccnc12 | inconclusive: 13.1 µM [inhibitor, partial curve] |  |
| CNS(=O)(=O)c1cccc(C(=O)OC2CCCCC2=O)c1 (stereo unspecified) | inconclusive: 10.4 µM [inhibitor, single point] |  |
| CCOC(=O)C1=C(C)N(CC)C(=S)NC1c1ccc(Cl)cc1 (stereo unspecified) | inconclusive: 18.5 µM [inhibitor, single point] |  |
| CC(=O)N1CCN(c2ccc(S(=O)(=O)NCCN(C(C)C)C(C)C)cc2[N+](=O)[O-])CC1 |  | inactive: 1.63% |
| Cc1cccc(Nc2nnc(SCC3CCCCO3)s2)c1C (stereo unspecified) | active: 11.7 µM |  |
| COc1cc(C(=O)NCCCCCC(=O)O)cc(OC)c1OC | inactive |  |
| CC(C)N1C(=O)C2C(c3ccccc3O)NC(C)(C(=O)O)C2C1=O (stereo unspecified) |  | inactive: 57.9% |
| COc1ccc(C)cc1NC(=O)CCCN1C(=O)CN(C)C1=O |  | inactive: -17.6% |
| CCCNC(=O)CN(C)S(=O)(=O)c1c(C)cc(C)cc1C | active: 10.4 µM |  |
| Oc1cc(-c2ccncc2)cc2cccnc12 | active: 5.22 µM |  |
| Cc1ccc(/C=C/C(=O)Nc2ccc(Oc3ccccc3)cc2)o1 | inconclusive: 18.5 µM [inhibitor, single point] |  |
| O=C(/C=C/c1ccc([N+](=O)[O-])cc1)Oc1ccc(/C=N/NC(=O)c2ccncc2)cc1 | inconclusive: 13.1 µM [inhibitor, partial curve] |  |
| COc1cc(C(=O)Nc2ccc3c(c2)N(C(=O)CCN(C)C)c2ccccc2CC3)cc(OC)c1OC | active: 9.28 µM |  |
| CCc1ccc(NC(=O)N(CCN2CCOCC2)Cc2ccc3c(c2)CCCN3CC)cc1 | inconclusive: 18.5 µM [inhibitor, single point] |  |
| O=C(Nc1nnc(Cc2ccccc2)s1)Nc1ccccc1F | active: 14.7 µM |  |
| S=C(NCC1CCCO1)NC1CC1 (stereo unspecified) | inconclusive: 0.165 µM [inhibitor, partial curve, poor fit] |  |
| Cc1onc(-c2c(F)cccc2Cl)c1C(=O)Nc1cccc(S(=O)(=O)NCc2ccco2)c1 | inconclusive: 18.5 µM [inhibitor, single point] |  |

Retrieved one by one from the entries so far (four):

| Compound | Potency | activity change, negative = inhibition |
| --- | --- | --- |
| O=C(CCCN1C(=O)c2cccc3cccc(c23)C1=O)N1CCN(c2ccccc2O)CC1 | inconclusive: 8.28 µM [inhibitor, partial curve, poor fit] |  |
| O=C(NC1CC1)C1=C[C@H](c2ccc(C(F)(F)F)cc2)C[C@H](OCc2ccc(CO)cc2)O1 | inconclusive: 18.5 µM [inhibitor, single point] |  |
| Oc1cc(-c2ccncc2)cc2cccnc12 | active: 5.22 µM |  |
| CCCNC(=O)CN(C)S(=O)(=O)c1c(C)cc(C)cc1C | active: 10.4 µM |  |
